Laboratory results: PubChem BioAssay AID1259405 (NCATS, 2018)
Test: 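Silenced genes that increase secreted GFP made by CHO cells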 (primary screen). Cell system: Chinese hamster CHO-K1 ovary cells with stable secreted eGFP expression. Reagents: single siRNA against mouse genes, 0.8 pmol siRNA per well (2 µl of 400 nM stock). Duration: 3 days. Detection: 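Percent of the per-plate non-targeting control median for intracellular GFP per well by laser scanning cytometry and for cell viability by ATP luminescence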. Reading the numbers: GFP, % of control: higher = more GFP per well, higher productivity; viability (ATP), % of control: higher = more viable cells (more ATP). Active means: 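a knock-down is called active if GFP reaches 120% or more of non-targeting control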.
The whole screen tested about 50,000 reagents; below is a random part of them. In the full data, about 4,000 (8%) are marked active. 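Mouse siRNA library applied to hamster cells; one well for each siRNA.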 Entries without a mark were called inactive. The numbers tell different reagents against one gene apart.

With knock-down of Prpf40b #1 the results were GFP, % of control 74.4; viability (ATP), % of control 72.
Against Prpf40b #2 the deposit lists GFP, % of control 49.1; viability (ATP), % of control 60.3.
For Prpf40b #3 the deposit lists GFP, % of control 67.5; viability (ATP), % of control 52.9.
Zfp945 #1 showed GFP, % of control 43.9; viability (ATP), % of control 67.9.
With knock-down of Zfp945 #2 the results were GFP, % of control 61.4; viability (ATP), % of control 64.9.
Depletion of Zfp945 #3 came out at: GFP, % of control 84.2; viability (ATP), % of control 108.
Nepn #1 scored GFP, % of control 71.3; viability (ATP), % of control 93.2.
Nepn #2 showed GFP, % of control 113; viability (ATP), % of control 33.9.
Nepn #3 showed GFP, % of control 55.3; viability (ATP), % of control 71.8.
With knock-down of Gsn #1 the results were GFP, % of control 53.8; viability (ATP), % of control 71.
Knock-down of Gsn #2 gave: GFP, % of control 51.7; viability (ATP), % of control 71.4.
Gabarapl2 #1 showed GFP, % of control 115; viability (ATP), % of control 100.
Gabarapl2 #2 scored GFP, % of control 78.1; viability (ATP), % of control 97.1.
Eaf2 #1 showed GFP, % of control 67.5; viability (ATP), % of control 70.4.
Silencing of Eaf2 #2 came out at: GFP, % of control 45.1; viability (ATP), % of control 92.
Eaf2 #3 scored GFP, % of control 159 (active); viability (ATP), % of control 70.4.
Silencing of Zfp119a #1 gave: GFP, % of control 42.3; viability (ATP), % of control 43.7.
Against Zfp119a #2, the entry reads GFP, % of control 67.5; viability (ATP), % of control 68.5.
After knock-down of Zfp119a #3, the screen gave GFP, % of control 31.5; viability (ATP), % of control 43.3.
Depletion of Vcf1 #1 came out at: GFP, % of control 73.9; viability (ATP), % of control 90.8.
For Vcf1 #2, the entry reads GFP, % of control 52.7; viability (ATP), % of control 61.3.
Against Vcf1 #3, the values are GFP, % of control 83.4; viability (ATP), % of control 99.9.

Limited to “viability (ATP), % of control”, for 6 of the entries above:
Eaf2 #1 = 70.4
Eaf2 #2 = 92
Eaf2 #3 = 70.4 (active)
Zfp119a #1 = 43.7
Zfp119a #2 = 68.5
Zfp119a #3 = 43.3

Next records:
Depletion of Trdmt1 #1 came out at: GFP, % of control 71.2; viability (ATP), % of control 89.
With knock-down of Trdmt1 #2, the record shows GFP, % of control 109; viability (ATP), % of control 93.2.
Trdmt1 #3 gave GFP, % of control 25.7; viability (ATP), % of control 36.2.
After knock-down of Mgp #1 the results were GFP, % of control 94.6; viability (ATP), % of control 93.8.
Mgp #2 scored GFP, % of control 74.4; viability (ATP), % of control 90.8.
Or6c1b #1 showed GFP, % of control 216 (active); viability (ATP), % of control 80.8.
Or6c1b #2 showed GFP, % of control 29.1; viability (ATP), % of control 52.2.
Silencing of Or6c1b #3 resulted in: GFP, % of control 118; viability (ATP), % of control 73.3.
Against Plscr4 #1, the entry reads GFP, % of control 91.8; viability (ATP), % of control 95.6.
Silencing of Plscr4 #2 came out at: GFP, % of control 131 (active); viability (ATP), % of control 109.
Against Plscr4 #3, the values are GFP, % of control 98.3; viability (ATP), % of control 93.3.
Dsc2 #1 scored GFP, % of control 72.1; viability (ATP), % of control 69.1.
Against Dsc2 #2, the values are GFP, % of control 94.9; viability (ATP), % of control 76.3.
Depletion of Dsc2 #3 gave: GFP, % of control 83.6; viability (ATP), % of control 81.8.
After knock-down of Prkch #1, the screen gave GFP, % of control 91.9; viability (ATP), % of control 82.3.
Knock-down of Prkch #2 gave: GFP, % of control 48.2; viability (ATP), % of control 56.5.
After knock-down of Prkch #3, the screen gave GFP, % of control 80.7; viability (ATP), % of control 66.9.
Or6k14 #1 scored GFP, % of control 86.3; viability (ATP), % of control 25.6.
For Or6k14 #2, the values are GFP, % of control 64.3; viability (ATP), % of control 81.6.
Silencing of Or6k14 #3 came out at: GFP, % of control 44.9; viability (ATP), % of control 41.6.
